Earlier results in patent US9890117B2, “Benzamide compounds and related methods of use” (Northwestern University, priority 2012, dated 2018).
At least one compound was matched to its structure with a doubt left. Some compounds share one wording; it may come from a single statement.

How the values were obtained:
[1] = C2-8: following oral administration; cited from earlier work
[2] = cited from earlier work

SMILES	blood brain barrier / brain permeability [1]	plasma and microsomal metabolic stability [2]
O=C(Nc1ccc(Br)cc1)c1cccc(S(=O)(=O)Nc2ccc(Br)cc2)c1 [Compound C2-8]	crossed the blood brain barrier	low plasma and microsomal metabolic stability
O=C(Nc1cccc(Br)c1)c1cccc(S(=O)(=O)N2CCCCCC2)c1 [AK-7]	brain-permeable	low plasma and microsomal metabolic stability
O=C(Nc1cccc([N+](=O)[O-])c1)c1cccc(S(=O)(=O)N2CCCCCC2)c1 [AK-1]		low plasma and microsomal metabolic stability
